The other results are listed elsewhere or left out.

The subject of the experiment is T1, CTL2-GFP (C. trachomatis L2/434/Bu, GFP-expressing).
T1 construct: L2/434/Bu, GFP-expressing
Details: species or system HeLa; Intracellular C. trachomatis growth in HeLa cells, bulk GFP fluorescence relative to DMSO. The conditions noted are these: bulk GFP, single well; 28.5 h, 10 µM; inhibitor.
For `COc1cc(/C=C2\C=C(c3ccc(-c4ccccc4)cc3)OC2=O)ccc1O` [CBK265594], the “% of control remaining” value came to 100%. In the case of `COc1ccc(NC(=O)/C(=C\c2ccc3c(c2)OCO3)NC(=O)c2ccco2)cc1` [CBK263607], the “% of control remaining” value is 100%.

In the case of `Cc1ccc(-c2noc(CN(C(=O)CCc3ccccc3)C(C)C)n2)cc1` [CBK269313], the “% of control remaining” value worked out at 105.36%. Next, `O=C(NC(Cc1cccs1)c1nccs1)c1cc[nH]n1` (stereo not drawn) [CBK285052]: 143.329%; `CCN(CC)CCNC(=O)c1ccc(NS(=O)(=O)c2cc(C(=O)O)ccc2OC)cc1` [CBK296962]: 132.224%; `CN(C)CCN(C)C(=O)c1ccc(-c2ccc3c(c2)OCO3)nc1N(C)C` [CBK106072]: 99.0967%.

For the compound `CCCCN1CCC(C(=O)Oc2ccc(OC)c3ccccc23)CC1` [CBK122682], the “% of control remaining” value amounted to 87.3711%. Regarding `COc1cc(NC(=O)Nc2ccc3ccc(Cl)nc3n2)cc(OC)c1OC` [CBK115933], the “% of control remaining” value is listed as 116.071%. Next, `N#Cc1ccccc1N1CCN(c2cncc(-c3cccc4cccnc34)n2)CC1` [CBK037366]: 167.912%; `Nc1ncc(-c2ccc(C(=O)N3CCOCC3)cc2)cc1C(=O)Nc1ccc(C(F)(F)F)cc1` [CBK160204]: 82.4344%; `OC1(Cn2cnc3ccccc32)CCN(Cc2cccc(F)c2)CC1` [CBK284663]: 162.864%. Next, `CCCC(=O)Nc1ccc(-c2csc(NC(=O)C3CCCO3)n2)cc1` (stereo not drawn) [CBK305854]: 95.2775%; `Cc1ccc(S(=O)(=O)NCC(c2ccccc2)N2CCN(CCC#N)CC2)cc1` (stereo not drawn) [CBK262865]: 131.342%; `CC1CC(C)CN(CCCNS(=O)(=O)c2ccc3c(c2)oc(=O)n3C)C1` (stereo not drawn) [CBK268695]: 131.909%. For the compound `CC(c1ccc(F)c(F)c1)N(C)C(=O)Cn1cnnc1[S+](C)[O-]` (stereo not drawn) [CBK305311], the “% of control remaining” value was 144.302%. Next, `c1ccc(CN2CC[C@H](Nc3nccnc3-c3cccnc3)C2)cc1` [CBK036978]: 169.753%; `CCOc1ccccc1N(CC(=O)O)S(=O)(=O)c1ccc(Cl)cc1` [CBK287144]: 92.3946%. To `Cc1cccn2cc(C(=O)N(C)CCn3ccnc3C)nc12` [CBK281735] belongs 143.937%; to `S=C(NCc1ccc(Cl)cc1)Nc1ccncc1` [CBK016651], 112.451%.

With `Cc1cc2ncn(CC(=O)Nc3c(C)noc3C)c2cc1C` [CBK200222], the “% of control remaining” value was determined as 110.823%. Next, `CN(Cc1ccc(CN2CCOC(c3ccccc3)C2)o1)S(C)(=O)=O` (stereo not drawn) [CBK306808]: 137.086%; `CCN(C(=O)c1cc2ccc(N(C)C)cc2[nH]1)C1CCN(C)CC1` [CBK281867]: 93.0421%; `O=S(=O)(NCCOCc1ccccc1)c1ccc2c(c1)Cc1ccccc1-2` [CBK266032]: 124.335%. For the compound `C=CCNC(=O)CCc1nc(-c2cccc(OC)c2)no1` [CBK268981], the “% of control remaining” value is on record as 128.654%.

`CCOC(=O)c1c(NC(=O)CSc2nnc3ccccn23)sc2c1CCC(C)C2` (stereo not drawn) [CBK265668]: the “% of control remaining” value is recorded as 100%. `Cc1ccc(C)c(Nc2nc3nonc3nc2N2CCOCC2)c1` [CBK262491]: the “% of control remaining” value worked out at 105.433%. `CCNC(=O)c1ccc(-n2cccn2)c(C#Cc2ccccn2)c1` [CBK283125]: the “% of control remaining” value was found to be 102.253%. Next, `COc1ccc2ncc3c(-c4ccccc4)n[nH]c3c2c1` [CBK288052]: 139.079%; `Nc1ccc2ccc(-c3ccccc3)nc2n1` [CBK061865]: 125.713%; `CN1CCN(c2ccc(NC(=S)NC(=O)c3cc(Br)ccc3Cl)cc2)CC1` [CBK266254C]: 152.335%.

Consider `CC1(C)CC(N(Cc2c[nH]cn2)Cc2ccccc2F)CC(C)(C)N1` [CBK282579], for which the “% of control remaining” value is listed as 107.112%. Turning to `CC(=O)Nc1ccc(Oc2cc(C)nc(C3CCCNC3)c2)cc1` (stereo not drawn) [CBK283443], the “% of control remaining” value was determined as 126.176%. For `COc1ccc2nc(-c3ccc(F)c(NC(=O)c4ccccc4)c3)cn2n1` [CBK287827], the “% of control remaining” value amounted to 115.929%.

Regarding `COc1ccc(OC)c(-n2c(C)cn3c4c(=O)[nH]c(=O)n(C)c4nc23)c1` [CBK141314], the “% of control remaining” value was 70.8983%. Next, `O=C(Cc1ccccn1)N1CCc2ccccc2C1` [CBK200334]: 115.512%. Turning to `Cc1ccccc1OCC(O)CNC(=O)c1ccccc1C(=O)O` (stereo not drawn) [CBK264824], the “% of control remaining” value amounted to 138.106%.

As to `CNC(=O)NC(=O)C1CCN(CCc2ccccc2)CC1` [CBK034956], the “% of control remaining” value amounted to 107.696%. Take `O=C(Nc1cccc2ccccc12)C1CCCN1S(=O)(=O)c1ccc(Cl)cc1` (stereo not drawn) [CBK138930]: the “% of control remaining” value stood at 129.918%.

`Cc1nnc(SCc2cc(=O)[nH]c(N3CCN(c4ccccc4F)CC3)n2)s1` [CBK270017]: the “% of control remaining” value came to 122.567%. `O=C1Cc2ccccc2C2(CCN(C(=O)Nc3c(F)cccc3F)CC2)N1` [CBK047296]: the “% of control remaining” value is reported as 100%. Next, `Cc1nc[nH]c1CN(CCCn1ccnc1)Cc1ccccc1Cl` [CBK282473]: 147.176%; `COc1ccccc1-c1nccnc1OCc1ccccc1` [CBK106817]: 72.7595%. For `Cc1nc(CC(=O)NC2CCCN(c3ccn(C)n3)C2=O)c(C)s1` (stereo not drawn) [CBK304422], the “% of control remaining” value is on record as 132.001%.

Regarding `Cc1cc2ncn(CC(=O)N3CCc4ccccc43)c2cc1C` [CBK200270], the “% of control remaining” value is listed as 85.4647%. Next, `CC1CCN(S(=O)(=O)c2cccc(C(=O)NNC(=O)c3cccc([N+](=O)[O-])c3)c2)CC1` [CBK266774]: 138.022%; `Cc1nc2ccc(C(=O)c3ccccc3O)cn2c(=O)c1CCC(=O)O` [CBK295618]: 125.571%; `Cn1ccnc1C1(O)CC2CCC(C1)N2C(=O)Nc1ccc(F)cc1` (stereo not drawn) [CBK284051]: 137.309%. With `CNC(=O)C1(Cc2ccccc2-c2cccs2)CCN(C(=O)Cc2cccc(C)c2)CC1` [CBK285686], the “% of control remaining” value is 112.054%.

Turning to `CC(C)C(NS(=O)(=O)c1ccc2ccccc2c1)C(=O)O` (stereo not drawn) [CBK286919], the “% of control remaining” value was 117.346%. With `Cn1ccc(C2CCCCCN2S(=O)(=O)c2ccc(F)cc2)n1` (stereo not drawn) [CBK284671], the “% of control remaining” value is on record as 112.376%. Next, `COc1cccc(CNC(=O)C2CCCN(c3nc4c(-c5ccccc5)csc4c(=O)[nH]3)C2)c1` (stereo not drawn) [CBK215463]: 137.795%; `CC(Sc1nnc2[nH]c3ccccc3n12)C(=O)O` (stereo not drawn) [CBK265822]: 191.416%.

For the compound `CN(C)C(=O)CCc1nc(-c2ccccn2)no1` [CBK297735], the “% of control remaining” value came out at 148.33%. With `CC(=O)ON=C1c2cc(S(=O)(=O)N(C)C)ccc2-c2ccc(S(=O)(=O)N(C)C)cc21` [CBK262807], the “% of control remaining” value is listed as 126.135%.

Regarding `Cc1ccc(S(=O)(=O)Nc2nnc(SCC(=O)Nc3ccc4c(c3)OCO4)s2)cc1` [CBK026675], the “% of control remaining” value is listed as 101.592%.

As for `Cc1csc(N2CCN(CC(O)COCc3ccco3)CC2)n1` (stereo not drawn) [CBK306151], the “% of control remaining” value is on record as 116.651%. Regarding `CN1CCN(S(=O)(=O)c2ccc3oc(=O)ccc3c2)CC1` [CBK062431], the “% of control remaining” value worked out at 110.397%. Consider `O=C(O)c1cc(C(=O)O)n(Cc2ccc(Cl)cc2Cl)n1` [CBK268283], for which the “% of control remaining” value turned out to be 87.4296%.

In the case of `N#CC(CCCN1CCN(c2ccccc2)CC1)(c1ccccc1)c1ccccc1` [CBK002243C], the “% of control remaining” value amounted to 53.3009%.

Take `O=C(Nc1ccc(Br)cc1C(=O)O)c1cccs1` [CBK066822]: the “% of control remaining” value was 144.99%.

`COc1cccc(-c2ccc(NS(=O)(=O)c3ccc4c(c3)CCC(=O)N4)cc2)c1` [CBK286373]: the “% of control remaining” value worked out at 100.327%. To `c1cncc(-c2nnc([C@H]3CCN(C4CCOCC4)C3)o2)c1` [CBK289398] belongs 123.878%; to `Cn1c(N)c(C(=O)NCC2CCCO2)c2nc3ccccc3nc21` (stereo not drawn) [CBK269342], 135.087%. As to `O=C(CC(CN1CCN(c2cccc(Cl)c2)CC1)C(=O)O)NCc1ccccc1` (stereo not drawn) [CBK286787], the “% of control remaining” value is recorded as 112.324%. Turning to `COc1ccc(C(C)(C)C)cc1NC(=O)c1ccncc1` [CBK288248], the “% of control remaining” value stood at 134.819%.

With `CCN(CC)C(=O)Cn1ncc2c3sc(C)cc3n(C)c2c1=O` [CBK284156], the “% of control remaining” value stood at 114.775%. Next, `CN(C(=O)CN1CSCC1=O)c1nc2c(s1)CC(c1ccccc1)CC2` (stereo not drawn) [CBK305526]: 90.472%; `Cc1ccc(OCC(=O)Nc2ccc3c(c2)nc2n3CCOC2)cc1` [CBK288005]: 99.7933%.

For `CC(=O)c1cccc(-c2cnc(Nc3ccc(N4CCOCC4)cc3)c3nccn23)c1` [CBK091217], the “% of control remaining” value is given as 84.3841%. To `COC(=O)c1ccc(NC(=O)CNc2ccccc2)cc1` [CBK268064] belongs 121.061%; to `CCOC(=O)N1CCC(NC(=O)N(CCCN(C)C)Cc2ccc3c(c2)OCO3)CC1` [CBK159231], 102.229%. To `CC(C)(CN)CN(Cc1ccc(-c2ccccc2)cc1)C(=O)Nc1ccccc1C(C)(C)C` [CBK002476C] belongs 46.9344%; to `Cc1nnc(SCC(=O)N2c3ccccc3Sc3ccccc32)n1N` [CBK265920], 116.609%; to `CCOC(=O)c1[nH]c2ccccc2c1NS(=O)(=O)c1ccc(OC)c(OC)c1` [CBK047421], 115.602%. To `COc1ccc([N+](=O)[O-])cc1NC(=O)c1cc(-c2ccccc2Cl)nc2ccc(C)cc12` [CBK267764] belongs 113.7%; to `CCN1CC2(CCC1=O)CCN(Cc1cccc(CCN)c1)CC2` [CBK306823], 137.228%; to `CN(C)C(=O)CN1N=C(C(C)(C)C)Cn2c(cc3sccc32)C1=O` [CBK284116], 134.824%.

For the compound `CC(C)c1ccc(C(C)NC(=O)c2ccc(=O)n(CC(=O)N3CCCCC3)c2)cc1` (stereo not drawn) [CBK286084], the “% of control remaining” value was found to be 121.794%.
